Laboratory results: patent US20160168234A1
These are yes or no findings as the source states them, for the method shown. Some binding calls cover weakened binding; strength is not graded here.

By UniProt entry, the sequences of proteins in these tests, tags left out. Residues count along the entry.
UniProt P05067, residues 672-713: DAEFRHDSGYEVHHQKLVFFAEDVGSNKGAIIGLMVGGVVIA

Key:
[1] = molecular target: Amyloid Beta (antigen of the Amyloid Beta ELISA) (UniProt P05067); test: Amyloid Beta ELISA, purified antibody from NS0
[2] = molecular target: amyloid plaques of brains from AD disease patients (human) (UniProt P05067); test: immunohistochemistry on paraffin sections of human brain pretreated with formic acid
[3] = molecular target: Amyloid Beta (antigen of the Amyloid Beta ELISA) (UniProt P05067); test: Amyloid Beta ELISA, conditioned medium from transient transfection

| Binder | binding [1] | binding [2] | binding [3] |
| --- | --- | --- | --- |
| C2 ChVH AF/ChVK chimeric antibody (purified, IgG4) (antibody, V domains shown) VH: EVQLVESGGGLVQPGGSLKLSCAASGFTFSSYGMSWVRQTPDKRLELVASINSNGGSTYYPDSVKGRFTISRDNAKNTLYLQMSSLKSEDTAMYYCASGDYWGQGSTLTVSS VL: DVVMTQTPLSLPVSLGDQASISCRSSQSLVYSNGDTYLHWYLQKPGQSPKLLIYKVSNRFSGVPDRFSGSGSGTDFTLKISRVEAEDLGVYFCSQSTHVPWTFGGGTKLEIKR | binds | binds | – |
| C2HuVH4/HuVK2 humanized antibody (purified) (antibody, human IgG4, V domains shown) VH: EVQLVESGGGLVQPGGSLRLSCAASGFTFSSYGMSWVRQAPGKGLELVASINSNGGSTYYPDSVKGRFTISRDNAKNSLYLQMNSLRAEDTAVYYCASGDYWGQGTTVTVSS VL: DIVMTQSPLSLPVTPGEPASISCRSSQSLVYSNGDTYLHWYLQKPGQSPQLLIYKVSNRFSGVPDRFSGSGSGTDFTLKISRVEAEDVGVYFCSQSTHVPWTFGQGTKVEIKR | binds | – | – |
| VK-R antibody (mC2 VK-R with chimeric C2 VH) (antibody, V domains shown) VH: EVQLVESGGGLVQPGGSLKLSCAASGFTFSSYGMSWVRQTPDKRLELVASINSNGGSTYYPDSVKGRFTISRDNAKNTLYLQMSSLKSEDTAMYYCASGDYWGQGSTLTVSS VL: DVVMTQTPLSLPVSLGDQASISCRSSQSLVYSNGDTYLHWYLQKPGQSPKLLIYRVSNRFSGVPDRFSGSGSGTDFTLKISRVEAEDLGVYFCSQSTHVPWTFGGGTKLEIK | – | – | binds |
| VK-S antibody (mC2 VK-S with chimeric C2 VH) (antibody, V domains shown) VH: EVQLVESGGGLVQPGGSLKLSCAASGFTFSSYGMSWVRQTPDKRLELVASINSNGGSTYYPDSVKGRFTISRDNAKNTLYLQMSSLKSEDTAMYYCASGDYWGQGSTLTVSS VL: DVVMTQTPLSLPVSLGDQASISCRSSQSLVYSNGDTYLHWYLQKPGQSPKLLIYKVSSRFSGVPDRFSGSGSGTDFTLKISRVEAEDLGVYFCSQSTHVPWTFGGGTKLEIK | – | – | binds |
